According to PubChem BioAssay AID280 (DTP/NCI, 2004):
The list does not hold the whole screen: it gathers tests that were run many times, whatever their T/C, doses with no T/C, and many T/C values between a quarter and a half above the control. Other doses and runs of a compound stand elsewhere. T/C is the treated group as % of the vehicle group. Some entries give survivors of the animals treated and no T/C: the source holds a T/C of zero for them, seemingly a mark for toxic or unscored doses. Some doses without a T/C left all or most animals alive at the check, yet need not have been tolerated: the source hardly ever lists a survival T/C far under the control, and the zero likely stands for such cases as well. Survivors were counted at the toxicity check, usually on the fifth day, unless a day is given; later deaths do not show. Schedule codes are those of the source, taken here to give the interval after Q, in days (D) or hours (H), and the number of doses after X. Some entries were tested several times; the results are listed from low to high. For survival time, this PubChem deposit counts one and a half times the control or more as active, and values a quarter to a half above the control carry no call in these data; other NCI protocols may use other cut-offs. Some T/C values are followed by the survivors on the day toxicity was checked, most often the fifth; where none is given, no animal had died by that day.

Test system: nude mice, LOX melanoma ip, survival T/C
Test: NCI In Vivo Anticancer Drug Screen. Data for tumor model Human Amelanotic Melanoma (LOX) (intraperitoneal) in NU/NU BALB/C (nude) mice
Conditions: T/C endpoint: median survival time, higher T/C = longer survival
Experimental: The antitumor activity of compounds was measured in mice bearing transplantable tumors. Survival or tumor size were measured and the results are expressed as the measurement made in the treated group (T) divided by the measurement made in the vehicle treated control group (C). The tumor model used in this assay is Human Amelanotic Melanoma (LOX) (intraperitoneal) in NU/NU BALB/C (nude) mice

[1] = dose: 75.0 mg/kg/injection, schedule: Q04DX003 (ip), vehicle: Klucel (hydroxypropylcellulose) (HPC)
[2] = dose: 150.0 mg/kg/injection, schedule: Q04DX003 (ip), vehicle: Klucel (hydroxypropylcellulose) (HPC)
[3] = dose: 100.0 mg/kg/injection, schedule: Q04DX003 (ip), vehicle: Klucel (hydroxypropylcellulose) (HPC)
[4] = dose: 400.0 mg/kg/injection, schedule: Q04DX003 (ip), vehicle: saline with Tween-80
[5] = dose: 800.0 mg/kg/injection, schedule: Q04DX003 (ip), vehicle: saline with Tween-80
[6] = dose: 300.0 mg/kg/injection, schedule: Q04DX003 (ip), vehicle: Klucel (hydroxypropylcellulose) (HPC)
[7] = dose: 75.0 mg/kg/injection, schedule: Q04DX003 (ip), vehicle: saline with Tween-80
[8] = dose: 1200.0 mg/kg/injection, schedule: Q04DX003 (ip), vehicle: saline with Tween-80
[9] = dose: 50.0 mg/kg/injection, schedule: Q04DX003 (ip), vehicle: saline with Tween-80
[10] = dose: 100.0 mg/kg/injection, schedule: Q04DX003 (ip), vehicle: saline with Tween-80
[11] = dose: 300.0 mg/kg/injection, schedule: Q04DX003 (ip), vehicle: saline with Tween-80
[12] = dose: 600.0 mg/kg/injection, schedule: Q04DX003 (ip), vehicle: saline with Tween-80

## COC(=O)NC1C(C)OC(OC2C/C=C(/C)C3C=CC4C(OC5CC(OC6CC(OC7CC(O)C(O)C(C)O7)C(OC7CC(O)C(OC)C(C)O7)C(C)O6)C(O)C(C)O5)C(C)CC(C)C4C3(C)/C(O)=C3\C(=O)OC4(CC(C)C(CO)=CC4/C=C\2C)C3=O)CC1(C)[N+](=O)[O-] (centres undefined)
dose: 37.5 mg/kg/injection, schedule: Q04DX003 (ip), vehicle: water
  T/C: 125 % of control
dose: 300.0 mg/kg/injection, schedule: Q04DX003 (ip), vehicle: water
  survivor count: 1 of 6 on day 10
dose: 600.0 mg/kg/injection, schedule: Q04DX003 (ip), vehicle: water
  survivor count: 0 of 6 on day 10

## O=C(O)CCCc1ccc(N(CCCl)CCCl)cc1
dose: 0.13 mg/kg/injection, schedule: Q04DX003 (ip), vehicle: Klucel (hydroxypropylcellulose) (HPC)
  survivor count: 6 of 6 on day 10
dose: 12.0 mg/kg/injection, schedule: Q04DX003 (ip), vehicle: Klucel (hydroxypropylcellulose) (HPC)
  T/C: 138 and 146 % of control
dose: 27.0 mg/kg/injection, schedule: Q01DX001 (ip), vehicle: Klucel (hydroxypropylcellulose) (HPC)
  T/C: 144 % of control
dose: 40.0 mg/kg/injection, schedule: Q04DX003 (ip), vehicle: Klucel (hydroxypropylcellulose) (HPC)
  survivor count: 6 of 6 on day 14

## O=[N+]([O-])c1ccc([I+]c2ccccc2)cc1
dose: 18.75 mg/kg/injection, schedule: Q04DX003 (ip), vehicle: Klucel (hydroxypropylcellulose) (HPC)
  T/C: 144 % of control
[1]
  T/C: 141 [5 of 6 alive on day 10] and 144 % of control [4 of 6 alive on day 10]
dose: 125.0 mg/kg/injection, schedule: Q04DX003 (ip), vehicle: Klucel (hydroxypropylcellulose) (HPC)
  survivor count: 0 of 6 on day 10 and 1 of 6 on day 10
[2]
  survivor count: 0 of 6 on day 10
dose: 208.0 mg/kg/injection, schedule: Q04DX003 (ip), vehicle: Klucel (hydroxypropylcellulose) (HPC)
  survivor count: 1 of 6 on day 10

## CN(C)/N=N/c1nc[nH]c1C(N)=O
[3]
  T/C: 133 % of control
[2]
  T/C: 129 % of control
dose: 225.0 mg/kg/injection, schedule: Q04DX003 (ip), vehicle: Klucel (hydroxypropylcellulose) (HPC)
  T/C: 147 % of control

## COc1cc(NCc2ccc3nc(N)nc(N)c3c2C)cc(OC)c1OC
dose: 120.0 mg/kg/injection, schedule: Q04DX003 (ip), vehicle: Klucel (hydroxypropylcellulose) (HPC)
  T/C: 144 % of control

## COc1ccc(O)cc1
[4]
  survivor count: 5 of 6 on day 10
[5]
  survivor count: 0 of 6 on day 10

## CCCCCCn1c(SC)nc(COC(=O)NC)c1COC(=O)NC
dose: 270.0 mg/kg/injection, schedule: Q04DX003 (ip), vehicle: saline
  survivor count: 0 of 6 on day 10
dose: 540.0 mg/kg/injection, schedule: Q04DX003 (ip), vehicle: saline
  survivor count: 0 of 6 on day 10

## Cc1cc(Nc2ccc3c(c2)OCO3)c2cc3c(cc2n1)OCO3
[2]
  T/C: 125 % of control
[6]
  survivor count: 2 of 6 on day 10
dose: 360.0 mg/kg/injection, schedule: Q04DX003 (ip), vehicle: Klucel (hydroxypropylcellulose) (HPC)
  T/C: 131 % of control
dose: 1000.0 mg/kg/injection, schedule: Q04DX003 (ip), vehicle: Klucel (hydroxypropylcellulose) (HPC)
  survivor count: 1 of 6 on day 10
dose: 1200.0 mg/kg/injection, schedule: Q04DX003 (ip), vehicle: Klucel (hydroxypropylcellulose) (HPC)
  survivor count: 0 of 6 on day 10
dose: 1667.0 mg/kg/injection, schedule: Q04DX003 (ip), vehicle: Klucel (hydroxypropylcellulose) (HPC)
  survivor count: 0 of 6 on day 10

## Cc1ccc2c(c1)n([O-])c1cc(Cl)ccc1[n+]2=O
dose: 200.0 mg/kg/injection, schedule: Q04DX003 (ip), vehicle: saline with Tween-80
  T/C: 125 % of control
[5]
  T/C: 142 % of control [5 of 6 alive on day 10]

## NC(=O)c1cc(Cl)nc2nc(Cl)nc(N)c12
[7]
  survivor count: 6 of 6 on day 10
[8]
  survivor count: 6 of 6 on day 10

## CCOC(=O)Nc1cc(NC(C)/C(=N/O)c2ccccc2)c([N+](=O)[O-])c(N)n1 (centres undefined)
[3]
  survivor count: 3 of 6 on day 10
dose: 200.0 mg/kg/injection, schedule: Q04DX003 (ip), vehicle: Klucel (hydroxypropylcellulose) (HPC)
  survivor count: 3 of 6 on day 10
dose: 400.0 mg/kg/injection, schedule: Q04DX003 (ip), vehicle: Klucel (hydroxypropylcellulose) (HPC)
  survivor count: 1 of 6 on day 10 and 3 of 6 on day 10
dose: 800.0 mg/kg/injection, schedule: Q04DX003 (ip), vehicle: Klucel (hydroxypropylcellulose) (HPC)
  survivor count: 2 of 6 on day 10

## CCC(NC(N)=O)C(CC)NC(N)=O (centres undefined)
dose: 12.5 mg/kg/injection, schedule: Q04DX003 (ip), vehicle: saline with Tween-80
  survivor count: 6 of 6 on day 10
[9]
  survivor count: 2 of 6 on day 10

## COC1=C(OC)C(=O)C(N(C)C)=C(CO)C1=O
dose: 400.0 mg/kg/injection, schedule: Q04DX003 (ip), vehicle: saline
  survivor count: 0 of 6 on day 10

## OCC1OC(n2cnc3c2NC=NC[C@H]3O)CC1O (some centres undefined)
dose: 32.0 mg/kg/injection, schedule: Q04DX003 (ip), vehicle: saline
  survivor count: 6 of 6 on day 10

## NC(=S)c1ncn(C2OC(COC=O)C(OC=O)C2OC=O)c1NC=O (centres undefined)
[10]
  T/C: 128 % of control
[5]
  survivor count: 5 of 6 on day 10

## COC1CC2C=C(C)/C=C/C=C/C(=O)NC(c3ccccc3)C/C=C/CCC(O)CC(=O)C2=C1O (centres undefined)
[1]
  T/C: 125 % of control
[2]
  T/C: 139 % of control
[6]
  survivor count: 3 of 6 on day 10

## O=S(=O)(c1cccc(N=C=S)c1)c1cccc(N=C=S)c1
dose: 240.0 mg/kg/injection, schedule: Q04DX003 (ip), vehicle: Klucel (hydroxypropylcellulose) (HPC)
  survivor count: 0 of 6 on day 10

## Cn1c2ccccc2c2ccc3c(c21)C(=O)C=CC3=O
[7]
  T/C: 127 % of control
dose: 150.0 mg/kg/injection, schedule: Q04DX003 (ip), vehicle: saline with Tween-80
  survivor count: 3 of 6 on day 10
[11]
  survivor count: 1 of 6 on day 10
[12]
  survivor count: 0 of 6 on day 10
[8]
  survivor count: 0 of 6 on day 10

## COC1=CCC23C(=O)C=CC(=O)C2(C1)C(=O)c1ccccc1C3=O (centres undefined)
[9]
  survivor count: 2 of 6 on day 10
[10]
  survivor count: 0 of 6 on day 10

## O=C(C/C(=N\C(=S)Nc1cc(C(F)(F)F)ccc1Cl)NO)N1CCCC1
[4]
  survivor count: 2 of 5 on day 10
[5]
  survivor count: 1 of 6 on day 10

## O=C(O)Cc1cccc(=O)c(O)c1C(=O)O
[11]
  survivor count: 6 of 6 on day 10
[12]
  survivor count: 0 of 6 on day 10
[8]
  survivor count: 0 of 6 on day 10

## CC(/C=C/C=C/C=C/C=C/C=C/C(O)=C1/C(=O)C(CCC(=O)O)N(C)C1=O)=C\C(C)C(OC1CC(O)C(O)C(C)O1)C(C)C (centres undefined)
dose: 4.0 mg/kg/injection, schedule: Q04DX003 (ip), vehicle: water
  T/C: 143 % of control
dose: 8.0 mg/kg/injection, schedule: Q04DX003 (ip), vehicle: water
  T/C: 125 % of control
dose: 23.0 mg/kg/injection, schedule: Q04DX003 (ip), vehicle: water
  T/C: 139 % of control
dose: 38.0 mg/kg/injection, schedule: Q04DX003 (ip), vehicle: water
  T/C: 138 % of control

## CC[C@@]1(O)C(=O)OCc2c1cc1n(c2=O)Cc2cc3ccccc3nc2-1
dose: 10.0 mg/kg/injection, schedule: Q04DX003 (ip), vehicle: saline with Tween-80
  survivor count: 3 of 6 on day 10
dose: 20.0 mg/kg/injection, schedule: Q04DX003 (ip), vehicle: saline with Tween-80
  survivor count: 0 of 6 on day 10
dose: 40.0 mg/kg/injection, schedule: Q04DX003 (ip), vehicle: saline with Tween-80
  survivor count: 0 of 6 on day 10
dose: 80.0 mg/kg/injection, schedule: Q04DX003 (ip), vehicle: saline with Tween-80
  survivor count: 0 of 6 on day 10
